No constants are given. Whether binding was seen depends on the method and setting. In cells and extracts the contact can be indirect. Some binding calls cover weakened binding; strength is not graded here.
Molecular target: T1, IRS2 (CD1 mouse kidney) (mouse (endogenous in CD1 mouse kidney)) (UniProt P81122)
T1 sequence: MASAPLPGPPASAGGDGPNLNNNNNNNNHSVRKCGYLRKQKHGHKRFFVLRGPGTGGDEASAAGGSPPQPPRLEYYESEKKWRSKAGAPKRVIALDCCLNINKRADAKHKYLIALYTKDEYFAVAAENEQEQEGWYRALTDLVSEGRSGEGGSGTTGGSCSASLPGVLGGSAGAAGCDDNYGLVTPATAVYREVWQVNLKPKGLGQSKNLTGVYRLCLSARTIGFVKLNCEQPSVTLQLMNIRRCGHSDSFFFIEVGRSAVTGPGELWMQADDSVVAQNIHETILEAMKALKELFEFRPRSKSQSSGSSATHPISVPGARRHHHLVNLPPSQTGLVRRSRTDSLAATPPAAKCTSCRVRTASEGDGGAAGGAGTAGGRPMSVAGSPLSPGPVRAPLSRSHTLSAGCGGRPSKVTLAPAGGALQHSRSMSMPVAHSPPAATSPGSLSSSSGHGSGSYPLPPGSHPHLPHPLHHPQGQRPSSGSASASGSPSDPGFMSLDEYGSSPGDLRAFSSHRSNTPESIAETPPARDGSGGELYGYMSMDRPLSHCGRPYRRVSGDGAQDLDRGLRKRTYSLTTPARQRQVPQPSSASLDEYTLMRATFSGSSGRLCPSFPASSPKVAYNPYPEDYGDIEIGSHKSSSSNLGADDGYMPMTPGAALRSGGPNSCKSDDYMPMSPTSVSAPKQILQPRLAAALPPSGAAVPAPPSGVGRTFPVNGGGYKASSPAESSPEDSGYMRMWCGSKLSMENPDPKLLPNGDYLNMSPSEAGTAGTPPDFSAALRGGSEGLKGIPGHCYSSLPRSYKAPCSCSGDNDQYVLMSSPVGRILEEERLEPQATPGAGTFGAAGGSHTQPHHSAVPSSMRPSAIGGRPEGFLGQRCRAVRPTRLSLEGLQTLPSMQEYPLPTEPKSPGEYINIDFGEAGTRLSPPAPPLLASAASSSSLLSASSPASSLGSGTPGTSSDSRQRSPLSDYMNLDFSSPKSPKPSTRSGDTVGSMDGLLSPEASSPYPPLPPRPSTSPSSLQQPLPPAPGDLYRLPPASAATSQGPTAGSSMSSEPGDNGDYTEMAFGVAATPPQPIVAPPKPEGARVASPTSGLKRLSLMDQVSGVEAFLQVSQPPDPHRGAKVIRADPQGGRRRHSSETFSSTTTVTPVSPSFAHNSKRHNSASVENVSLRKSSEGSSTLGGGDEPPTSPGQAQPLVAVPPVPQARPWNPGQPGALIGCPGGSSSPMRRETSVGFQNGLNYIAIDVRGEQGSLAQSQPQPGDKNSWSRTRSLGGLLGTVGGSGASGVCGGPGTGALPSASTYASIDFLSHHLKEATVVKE
Assay: co-IP; kidney tissue homogenised in CelLytic M, diluted in PBS, about 1.5 mg total protein with 30 ug agarose-conjugated anti-IRS2 antibody, overnight at 8 °C, one wash in ice-cold PBS, elution in 0.1 M glycine; eluates assayed for Rictor and IGF1R by ELISA, result as Rictor::IGF1R ratio (AU); animals: Dahl rats on high-salt diet with saline or nephrilin, CD1 mice sham or rhabdomyolysis (glycerol) with saline or nephrilin

Amino acid sequences for entries named in this document (tags omitted).
UniProt Q6QI06: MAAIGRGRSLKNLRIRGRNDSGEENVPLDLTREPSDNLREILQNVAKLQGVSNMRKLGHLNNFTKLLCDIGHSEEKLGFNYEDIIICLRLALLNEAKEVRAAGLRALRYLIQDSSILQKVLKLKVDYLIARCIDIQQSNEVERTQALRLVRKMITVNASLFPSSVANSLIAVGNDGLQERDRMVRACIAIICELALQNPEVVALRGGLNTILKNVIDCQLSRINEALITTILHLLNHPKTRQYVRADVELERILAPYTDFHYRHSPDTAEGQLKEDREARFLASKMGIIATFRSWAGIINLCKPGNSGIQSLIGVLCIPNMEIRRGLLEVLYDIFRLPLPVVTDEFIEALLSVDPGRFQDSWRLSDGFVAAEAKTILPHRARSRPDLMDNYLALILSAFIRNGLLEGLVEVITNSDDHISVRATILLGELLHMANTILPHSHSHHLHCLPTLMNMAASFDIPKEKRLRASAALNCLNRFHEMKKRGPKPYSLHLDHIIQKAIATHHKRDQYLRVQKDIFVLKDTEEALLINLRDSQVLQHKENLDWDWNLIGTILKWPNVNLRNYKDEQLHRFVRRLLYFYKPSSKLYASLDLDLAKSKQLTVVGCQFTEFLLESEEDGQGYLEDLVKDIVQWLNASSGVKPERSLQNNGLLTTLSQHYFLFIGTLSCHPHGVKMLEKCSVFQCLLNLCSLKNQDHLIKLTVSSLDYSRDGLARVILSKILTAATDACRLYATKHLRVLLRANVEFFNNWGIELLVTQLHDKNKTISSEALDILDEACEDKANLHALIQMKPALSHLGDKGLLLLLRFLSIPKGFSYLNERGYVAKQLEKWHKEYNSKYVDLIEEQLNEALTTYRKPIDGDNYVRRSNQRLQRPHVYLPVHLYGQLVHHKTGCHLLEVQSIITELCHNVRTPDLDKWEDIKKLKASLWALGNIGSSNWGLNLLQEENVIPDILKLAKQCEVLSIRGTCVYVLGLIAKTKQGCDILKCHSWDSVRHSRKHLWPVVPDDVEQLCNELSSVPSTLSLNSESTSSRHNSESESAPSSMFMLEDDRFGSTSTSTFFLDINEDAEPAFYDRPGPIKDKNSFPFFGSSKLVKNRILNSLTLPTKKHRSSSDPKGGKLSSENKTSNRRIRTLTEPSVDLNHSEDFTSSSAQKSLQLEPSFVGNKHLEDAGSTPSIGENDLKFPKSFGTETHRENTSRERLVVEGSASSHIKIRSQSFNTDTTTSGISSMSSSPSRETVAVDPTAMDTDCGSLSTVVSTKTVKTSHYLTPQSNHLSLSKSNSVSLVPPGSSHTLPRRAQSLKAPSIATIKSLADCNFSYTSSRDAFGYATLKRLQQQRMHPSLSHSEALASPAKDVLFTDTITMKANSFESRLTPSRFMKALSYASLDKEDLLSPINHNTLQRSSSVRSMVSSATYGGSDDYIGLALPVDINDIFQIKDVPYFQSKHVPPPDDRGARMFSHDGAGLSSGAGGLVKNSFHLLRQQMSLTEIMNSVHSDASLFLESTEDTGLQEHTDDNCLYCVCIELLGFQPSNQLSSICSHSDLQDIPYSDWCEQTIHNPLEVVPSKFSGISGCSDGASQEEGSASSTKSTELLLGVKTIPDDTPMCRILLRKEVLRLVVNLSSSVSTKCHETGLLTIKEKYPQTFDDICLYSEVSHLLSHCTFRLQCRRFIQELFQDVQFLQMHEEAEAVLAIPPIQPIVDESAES

- binding: binds
Substance: Rictor (CD1 mouse kidney) (from UniProt Q6QI06 1-1708)
